Reference: article PMC9632837
No constants are given. Whether binding was seen depends on the method and setting. For part of these data: Binding can be weak; no strength is given.

B1: LIN-2A PDZ domain (domain or fragment, UniProt P54936-1 545-620)
chain: RLVQFQKDTQEPMGITLKVNEDGRCFVARIMHGGMIHRQATLHVGDEIREINGMSVANRSVESLQEMLRDARGQVT
B2: LIN-2A SH3 domain (domain or fragment, UniProt P54936-1 633-717)
chain: ACEIFVRAQFDYEPSQDDLIPCPQAGIPFKTGDILQVISKDDHNWWQARFVSSFPSIGNSSNAQRSNQQQVAGLIPSPELQEWRT
B3: LIN-2A (LIN-2/CASK, long isoform), full length (protein, UniProt P54936-1 1-961)
chain: MRELDPDESNLLLDEQLSIRDVIEQGPFSNVYRILHGPSNRKFLLRSINLNLFRQHTGLGFEEIDEEIRICQNLQHPYICRLEKTINSVHYRHIIFENMEGNDICFEIVQRASNGFVFSEYVVSHYTRQLLDALDYCHTRKIVHRDVRPHNLVLASKDTSAPLKLCGFGVAKDLSEIGGSMACGRVGVPQFMAPEIVRKDRVSCSSDIWSSGVVLFLLLAGRLPFSGSTSDIYERIMQTDVDVDGYMPNISESARNLVRRMLNADPSKRISAKEALNHEWIRDKEHMASRKHMNDVIDQMRRYNESRKLKSNVLSAVNSGRFDETTPRQDTPQTAFVDGSSPGGDCCHRGESSSNDAAEPPADKDLSGAYKVLGSLDAINSLLDPNSYKPGSTTFQKIHDDGSVRNLLRLYDKIKALPCEPVVTEVDTSTLRKETLNQIDGLLGPSPEALELRQLLNSPHLASCVQALDVVVCEIRDPKNEASGSGDKEGNCVSSDPAPAYLNGGVLPLGAQRAGTSFEHFNQSAVHTSYDEEEEELYDCMSRLRLVQFQKDTQEPMGITLKVNEDGRCFVARIMHGGMIHRQATLHVGDEIREINGMSVANRSVESLQEMLRDARGQVTFKIIPSYRSAPPACEIFVRAQFDYEPSQDDLIPCPQAGIPFKTGDILQVISKDDHNWWQARFVSSFPSIGNSSNAQRSNQQQVAGLIPSPELQEWRTACLAMERSKNTCNTHCMWFNKKKKYYTTKYLQKHSALFDQLDLVTYEEVMRLSQYRRKTLVLLGAHGVGRRHIKNTLIHRHPNRFAYPIPHTTRPPRKDEVDGKHYYFVTNEQMMADIQNNEYLEYGTHEESMYGTKLETIRNIHKSGKIAILDVEPQALKVLRTAEYSPFVVFIAAPNLQGMQDPDGSLEKLLNESDVLRQAFGHLFDFIITNSDIDDTIAQLERLVEKLPAYPQWLPVTWVY
B4: UNC-29 second cytoplasmic loop, TM3-4 (aa318-445) (domain or fragment, UniProt P48181 318-445)
chain: YFRGPRTHRMPQWVRVVFLQFLPKLVCMKRPKSASERSAVRSGMAQLPGVGQFTLSPSAHHPLCPSADDRTTTIRNTASNETSAYYPLSTDALRAIDAIEYITEHLKRDEQHKSFRDDWKYVAMIIDR
B5: ACR-16 second cytoplasmic loop, TM3-4 (aa315-472) (domain or fragment, UniProt P48180 315-472)
chain: NLHYRTPETHDMGPWTRNLLLYWIPWILRMKRPGHNLTYASLPSLFSTKPNRHSESLIRNIKDNEHSLSRANSFDADCRLNQYIMTQSVSNGLTSLGSIPSTMISSNGTTTDVSQQATLLILHRIYHELKIVTKRMIEGDKEEQACNNWKFAAMVVDR

molecular target: FERM domain of FRM-3 (C. elegans); experiment: two-hybrid; Matchmaker Gold Yeast Two-Hybrid System; pGBKT7 baits and pGADT7 preys co-transformed into Y2HGold cells; transformants from SD-Leu-Trp restreaked onto SD-Leu-Trp-His-Ade plates

binding	Binder
no binding	B1
no binding	B2
binds	B3

molecular target: LIN-2A lacking the PDZ domain (C. elegans) (UniProt P54936); experiment: as above

binding	Binder
binds	B4
binds	B5

molecular target: FRM-3 (FRM-3/FARP), full length (C. elegans); experiment: as above

binding	Binder
no binding	B4
no binding	B1
no binding	B2
no binding	B5
binds	B3

molecular target: LIN-2A lacking the SH3 domain (C. elegans) (UniProt P54936); experiment: as above

binding	Binder
no binding	B4
no binding	B5
